# Literature values in patent US9579356B2, “Dietary supplements for reducing cholesterol levels” (RELIV INTERNATIONAL INC., priority 2006, dated 2017).
# Some entries share one result that the patent states for a list of compounds.
# System: rats
# Details: dietary supplementation
smiles,measurement,value
O=C(O)[C@@H](O)[C@@H](O)[C@H](O)[C@@H](O)C(=O)[O-].[K+] [potassium hydrogen D-glucarate],lowering LDL cholesterol levels,30-35%
same,lowering total cholesterol levels,13-15%
